According to the supplement of paper PMC10849652:
Some of the results follow.

Chains of the proteins cited; added tags and fusions are not shown. Lines headed by an entry give the natural chain unless they say otherwise; changes in a name come on top.
UniProt Q9BRA0: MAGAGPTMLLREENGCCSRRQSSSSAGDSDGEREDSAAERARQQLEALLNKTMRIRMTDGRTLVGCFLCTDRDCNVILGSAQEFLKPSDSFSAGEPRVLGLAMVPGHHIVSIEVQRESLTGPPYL
UniProt Q9UL68: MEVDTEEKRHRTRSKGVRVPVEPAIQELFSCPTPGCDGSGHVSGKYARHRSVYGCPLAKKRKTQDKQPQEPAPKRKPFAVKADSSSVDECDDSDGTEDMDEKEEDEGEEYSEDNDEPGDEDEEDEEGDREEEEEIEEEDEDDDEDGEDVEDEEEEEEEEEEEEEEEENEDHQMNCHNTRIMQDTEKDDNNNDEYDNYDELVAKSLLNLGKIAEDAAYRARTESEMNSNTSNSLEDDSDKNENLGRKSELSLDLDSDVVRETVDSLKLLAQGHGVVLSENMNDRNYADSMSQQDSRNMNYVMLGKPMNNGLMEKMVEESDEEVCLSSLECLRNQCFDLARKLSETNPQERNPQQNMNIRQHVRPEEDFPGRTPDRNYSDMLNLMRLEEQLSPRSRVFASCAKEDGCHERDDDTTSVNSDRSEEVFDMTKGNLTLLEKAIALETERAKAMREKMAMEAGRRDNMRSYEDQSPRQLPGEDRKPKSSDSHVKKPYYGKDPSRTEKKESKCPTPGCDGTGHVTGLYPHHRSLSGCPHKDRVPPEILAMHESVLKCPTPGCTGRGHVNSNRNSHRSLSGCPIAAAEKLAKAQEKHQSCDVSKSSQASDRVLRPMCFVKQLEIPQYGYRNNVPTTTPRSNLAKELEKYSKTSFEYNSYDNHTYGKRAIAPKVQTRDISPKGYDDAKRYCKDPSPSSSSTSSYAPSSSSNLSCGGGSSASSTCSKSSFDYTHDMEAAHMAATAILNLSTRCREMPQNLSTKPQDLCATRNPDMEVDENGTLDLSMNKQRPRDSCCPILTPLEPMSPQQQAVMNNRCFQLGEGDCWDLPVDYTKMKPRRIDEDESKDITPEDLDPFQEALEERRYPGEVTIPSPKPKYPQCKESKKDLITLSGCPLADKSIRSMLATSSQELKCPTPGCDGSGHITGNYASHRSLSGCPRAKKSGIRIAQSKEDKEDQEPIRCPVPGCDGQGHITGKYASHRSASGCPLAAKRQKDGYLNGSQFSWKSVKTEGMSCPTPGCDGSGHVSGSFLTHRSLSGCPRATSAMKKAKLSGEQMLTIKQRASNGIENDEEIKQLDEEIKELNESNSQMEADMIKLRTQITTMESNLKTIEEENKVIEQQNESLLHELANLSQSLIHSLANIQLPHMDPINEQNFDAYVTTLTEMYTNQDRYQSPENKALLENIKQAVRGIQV
UniProt Q8NFP9, whole entry, looked up: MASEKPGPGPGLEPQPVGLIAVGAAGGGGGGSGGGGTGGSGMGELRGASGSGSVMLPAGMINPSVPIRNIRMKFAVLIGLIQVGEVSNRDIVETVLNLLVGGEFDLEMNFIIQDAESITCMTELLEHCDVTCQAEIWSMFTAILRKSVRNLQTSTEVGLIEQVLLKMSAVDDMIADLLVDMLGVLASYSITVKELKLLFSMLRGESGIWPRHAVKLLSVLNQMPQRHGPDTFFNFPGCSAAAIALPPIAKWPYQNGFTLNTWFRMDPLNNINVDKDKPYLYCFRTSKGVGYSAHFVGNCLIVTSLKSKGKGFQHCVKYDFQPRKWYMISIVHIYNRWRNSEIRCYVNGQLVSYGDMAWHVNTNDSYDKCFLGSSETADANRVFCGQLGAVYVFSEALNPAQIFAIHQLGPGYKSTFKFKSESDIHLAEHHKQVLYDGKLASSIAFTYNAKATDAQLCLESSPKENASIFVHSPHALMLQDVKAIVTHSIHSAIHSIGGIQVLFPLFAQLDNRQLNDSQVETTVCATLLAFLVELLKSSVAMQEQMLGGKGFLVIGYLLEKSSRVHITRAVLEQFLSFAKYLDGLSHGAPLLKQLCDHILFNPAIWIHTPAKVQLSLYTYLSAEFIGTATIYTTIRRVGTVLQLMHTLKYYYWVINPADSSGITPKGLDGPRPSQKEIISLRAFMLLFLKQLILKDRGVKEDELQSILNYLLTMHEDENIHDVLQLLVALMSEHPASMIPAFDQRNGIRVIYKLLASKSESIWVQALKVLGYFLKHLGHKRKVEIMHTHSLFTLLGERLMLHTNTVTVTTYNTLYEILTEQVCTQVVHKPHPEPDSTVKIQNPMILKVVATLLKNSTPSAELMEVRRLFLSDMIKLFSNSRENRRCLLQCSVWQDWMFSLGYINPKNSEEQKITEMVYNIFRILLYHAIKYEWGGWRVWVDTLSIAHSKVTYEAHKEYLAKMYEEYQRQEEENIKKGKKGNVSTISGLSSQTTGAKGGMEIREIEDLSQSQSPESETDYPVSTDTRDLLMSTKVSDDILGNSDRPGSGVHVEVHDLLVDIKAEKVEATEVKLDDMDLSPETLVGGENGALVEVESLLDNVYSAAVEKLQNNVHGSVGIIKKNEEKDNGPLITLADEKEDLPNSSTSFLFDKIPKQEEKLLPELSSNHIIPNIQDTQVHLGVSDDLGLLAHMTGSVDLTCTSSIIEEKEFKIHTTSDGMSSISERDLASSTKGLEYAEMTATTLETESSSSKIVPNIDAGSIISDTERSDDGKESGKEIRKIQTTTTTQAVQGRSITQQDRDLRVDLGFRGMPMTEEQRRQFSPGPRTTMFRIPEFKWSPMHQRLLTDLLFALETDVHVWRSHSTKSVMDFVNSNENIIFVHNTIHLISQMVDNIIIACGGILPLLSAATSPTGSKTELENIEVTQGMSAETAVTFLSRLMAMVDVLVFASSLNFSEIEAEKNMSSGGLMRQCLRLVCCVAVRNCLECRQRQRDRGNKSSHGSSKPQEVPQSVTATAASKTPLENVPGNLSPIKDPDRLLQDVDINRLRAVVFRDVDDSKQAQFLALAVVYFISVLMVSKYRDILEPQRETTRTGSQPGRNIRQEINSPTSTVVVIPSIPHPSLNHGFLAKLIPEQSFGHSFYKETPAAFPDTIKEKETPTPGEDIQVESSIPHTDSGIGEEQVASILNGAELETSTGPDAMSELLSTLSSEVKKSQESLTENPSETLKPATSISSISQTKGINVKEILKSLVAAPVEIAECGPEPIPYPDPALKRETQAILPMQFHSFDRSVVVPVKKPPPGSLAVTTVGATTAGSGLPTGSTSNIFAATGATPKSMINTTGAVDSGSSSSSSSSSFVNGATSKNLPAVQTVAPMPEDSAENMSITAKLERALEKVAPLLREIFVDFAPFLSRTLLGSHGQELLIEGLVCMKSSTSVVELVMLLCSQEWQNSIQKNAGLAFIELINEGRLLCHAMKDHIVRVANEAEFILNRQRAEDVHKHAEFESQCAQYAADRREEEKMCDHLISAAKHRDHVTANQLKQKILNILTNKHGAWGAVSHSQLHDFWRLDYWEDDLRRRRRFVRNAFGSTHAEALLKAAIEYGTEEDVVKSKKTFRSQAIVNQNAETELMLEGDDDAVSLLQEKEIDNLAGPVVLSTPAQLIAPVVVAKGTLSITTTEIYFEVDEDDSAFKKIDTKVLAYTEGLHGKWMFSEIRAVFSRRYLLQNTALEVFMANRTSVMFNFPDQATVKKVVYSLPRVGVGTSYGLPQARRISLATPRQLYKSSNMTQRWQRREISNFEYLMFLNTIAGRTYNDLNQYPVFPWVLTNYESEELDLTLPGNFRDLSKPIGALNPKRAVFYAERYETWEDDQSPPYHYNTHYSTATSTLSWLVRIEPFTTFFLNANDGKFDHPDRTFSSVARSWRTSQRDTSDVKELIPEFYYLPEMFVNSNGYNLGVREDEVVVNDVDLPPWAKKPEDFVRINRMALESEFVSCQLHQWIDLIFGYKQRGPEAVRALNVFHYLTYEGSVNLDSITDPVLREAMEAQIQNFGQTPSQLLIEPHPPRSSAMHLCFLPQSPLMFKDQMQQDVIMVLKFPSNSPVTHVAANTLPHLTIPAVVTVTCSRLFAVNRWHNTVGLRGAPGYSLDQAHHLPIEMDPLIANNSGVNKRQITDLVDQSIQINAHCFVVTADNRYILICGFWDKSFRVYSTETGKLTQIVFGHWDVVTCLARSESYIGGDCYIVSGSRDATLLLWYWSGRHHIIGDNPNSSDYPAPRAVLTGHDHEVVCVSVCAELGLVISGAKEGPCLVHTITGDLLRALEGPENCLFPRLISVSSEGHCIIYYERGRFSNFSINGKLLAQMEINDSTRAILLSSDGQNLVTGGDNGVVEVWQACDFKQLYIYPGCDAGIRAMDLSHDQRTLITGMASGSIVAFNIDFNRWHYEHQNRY
UniProt P35579, whole entry, looked up: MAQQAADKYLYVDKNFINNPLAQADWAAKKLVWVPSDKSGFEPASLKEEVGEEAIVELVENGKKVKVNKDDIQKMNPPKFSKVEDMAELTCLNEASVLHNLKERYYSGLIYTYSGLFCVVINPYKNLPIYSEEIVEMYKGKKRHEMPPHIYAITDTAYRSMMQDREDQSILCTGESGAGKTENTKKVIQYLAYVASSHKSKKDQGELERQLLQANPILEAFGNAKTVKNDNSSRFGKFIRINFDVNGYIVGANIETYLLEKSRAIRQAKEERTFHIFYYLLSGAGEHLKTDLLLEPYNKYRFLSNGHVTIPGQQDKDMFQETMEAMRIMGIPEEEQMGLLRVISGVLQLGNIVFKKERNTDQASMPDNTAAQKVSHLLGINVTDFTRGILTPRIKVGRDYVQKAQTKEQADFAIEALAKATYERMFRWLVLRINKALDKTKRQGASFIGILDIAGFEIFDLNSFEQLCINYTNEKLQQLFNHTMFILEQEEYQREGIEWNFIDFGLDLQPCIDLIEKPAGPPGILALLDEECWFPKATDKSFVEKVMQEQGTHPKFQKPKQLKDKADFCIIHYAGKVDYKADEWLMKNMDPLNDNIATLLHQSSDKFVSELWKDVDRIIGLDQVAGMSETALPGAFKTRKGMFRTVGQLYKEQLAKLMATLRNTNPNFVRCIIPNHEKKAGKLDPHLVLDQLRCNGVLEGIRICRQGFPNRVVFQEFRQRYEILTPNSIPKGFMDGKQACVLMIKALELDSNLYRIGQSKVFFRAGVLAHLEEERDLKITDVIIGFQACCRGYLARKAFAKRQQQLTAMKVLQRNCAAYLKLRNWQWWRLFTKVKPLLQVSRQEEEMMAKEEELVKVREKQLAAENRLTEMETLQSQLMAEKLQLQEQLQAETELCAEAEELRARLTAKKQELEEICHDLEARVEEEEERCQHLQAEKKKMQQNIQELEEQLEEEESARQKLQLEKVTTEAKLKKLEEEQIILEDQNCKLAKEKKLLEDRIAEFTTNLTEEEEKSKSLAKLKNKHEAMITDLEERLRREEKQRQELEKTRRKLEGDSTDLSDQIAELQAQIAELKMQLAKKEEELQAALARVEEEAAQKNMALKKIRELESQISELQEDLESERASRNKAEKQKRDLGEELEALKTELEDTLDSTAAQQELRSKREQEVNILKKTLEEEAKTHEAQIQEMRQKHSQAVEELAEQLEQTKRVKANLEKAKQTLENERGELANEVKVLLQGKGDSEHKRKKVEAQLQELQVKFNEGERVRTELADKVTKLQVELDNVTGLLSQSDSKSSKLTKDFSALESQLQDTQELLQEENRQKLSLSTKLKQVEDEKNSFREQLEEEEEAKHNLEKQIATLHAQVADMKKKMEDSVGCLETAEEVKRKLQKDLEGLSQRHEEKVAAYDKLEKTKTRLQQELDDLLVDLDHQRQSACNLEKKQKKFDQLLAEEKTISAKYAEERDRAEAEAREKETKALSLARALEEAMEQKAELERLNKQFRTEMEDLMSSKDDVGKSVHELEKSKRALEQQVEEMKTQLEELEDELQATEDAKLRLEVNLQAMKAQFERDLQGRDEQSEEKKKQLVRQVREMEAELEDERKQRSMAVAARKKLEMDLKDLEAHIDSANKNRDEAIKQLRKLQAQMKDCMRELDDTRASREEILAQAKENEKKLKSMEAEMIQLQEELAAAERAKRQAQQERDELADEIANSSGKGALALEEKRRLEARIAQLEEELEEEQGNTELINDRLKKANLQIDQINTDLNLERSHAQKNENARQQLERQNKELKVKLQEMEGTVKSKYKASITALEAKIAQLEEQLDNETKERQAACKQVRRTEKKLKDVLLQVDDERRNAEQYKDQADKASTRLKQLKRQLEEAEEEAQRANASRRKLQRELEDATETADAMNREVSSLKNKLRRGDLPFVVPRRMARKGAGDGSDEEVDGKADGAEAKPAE
UniProt P60660, whole entry, looked up: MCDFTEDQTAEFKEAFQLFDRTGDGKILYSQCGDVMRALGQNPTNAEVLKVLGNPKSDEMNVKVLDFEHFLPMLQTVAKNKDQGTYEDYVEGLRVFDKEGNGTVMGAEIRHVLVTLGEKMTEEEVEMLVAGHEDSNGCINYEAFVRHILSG
UniProt Q99417: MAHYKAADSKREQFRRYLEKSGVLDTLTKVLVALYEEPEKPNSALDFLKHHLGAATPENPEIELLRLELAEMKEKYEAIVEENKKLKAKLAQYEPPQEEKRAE

Assays:
Assay in all cases: log2 fold change, soluble protein after heating vs DMSO (PISA); higher = thermal stabilisation; K562 lysate, 10 uM; active = over 0.2 and 3.5 SD of the protein, either way, in both replicates (recomputed)
lapatinib = compound: CS(=O)(=O)CCNCc1ccc(-c2ccc3ncnc(Nc4ccc(OCc5cccc(F)c5)c(Cl)c4)c3c2)o1 [lapatinib]
Procedure, shortened: (§1)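 Soluble protein was defined as the supernatant remaining after 21,000xg for 90 min, following pooling of heated aliquots and adjustment to 0.5% NP-40 at 4°C. Before that, crude K562 extract at 1 mg/mL protein in PBS pH 7.4 with 1 mM MgCl2 was treated with 10 μM compound for 30 min and heated for 3 min across 48°C-58°C. Quantification used TMTpro 16plex LC-MS/MS with channel sums equalised, and values are log-two fold changes in thermal stability relative to solvent controls from duplicates.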

pictilisib = compound: CS(=O)(=O)N1CCN(Cc2cc3nc(-c4cccc5[nH]ncc45)nc(N4CCOCC4)c3s2)CC1 [pictilisib]
Procedure, shortened: as §1

crizotinib = compound: C[C@@H](Oc1cc(-c2cnn(C3CCNCC3)c2)cnc1N)c1c(Cl)ccc(F)c1Cl [crizotinib]
Procedure, shortened: as §1

[1] = compound: C[C@H](C1=CC=C(C=C1)C(=O)NC2=C3C=CNC3=NC=C2)N
Procedure, shortened: as §1

duvelisib = compound: C[C@H](Nc1ncnc2nc[nH]c12)c1cc2cccc(Cl)c2c(=O)n1-c1ccccc1 [duvelisib]
Procedure, shortened: as §1

gandotinib = compound: Cc1cc(Nc2cc(CN3CCOCC3)c3nc(C)c(Cc4ccc(Cl)cc4F)n3n2)n[nH]1 [gandotinib]
Procedure, shortened: as §1

tozasertib = compound: Cc1cc(Nc2cc(N3CCN(C)CC3)nc(Sc3ccc(NC(=O)C4CC4)cc3)n2)n[nH]1 [tozasertib]
Procedure, shortened: as §1

doramapimod = compound: Cc1ccc(-n2nc(C(C)(C)C)cc2NC(=O)Nc2ccc(OCCN3CCOCC3)c3ccccc23)cc1 [doramapimod]
Procedure, shortened: as §1

bafetinib = compound: Cc1ccc(NC(=O)c2ccc(CN3CC[C@H](N(C)C)C3)c(C(F)(F)F)c2)cc1Nc1nccc(-c2cncnc2)n1 [bafetinib]
Procedure, shortened: as §1

[2] = compound: Cc1cccc(CC(=O)N2CCc3c2ccc(-c2cn(C)c4ncnc(N)c24)c3F)n1
Procedure, shortened: as §1

| Target | log2 fold change (lapatinib) | log2 fold change (pictilisib) | log2 fold change (crizotinib) | log2 fold change [1] | log2 fold change (duvelisib) | log2 fold change (gandotinib) | log2 fold change (tozasertib) | log2 fold change (doramapimod) | log2 fold change (bafetinib) | log2 fold change [2] |
| --- | --- | --- | --- | --- | --- | --- | --- | --- | --- | --- |
| NAP1L4 (UniProt C9J6D1) | inactive: -0.024 | – | – | – | – | – | – | – | – | – |
| NACA (UniProt F8VNW4) | inactive: 0.252 | – | – | – | – | – | – | – | – | – |
| NAP1L1 (UniProt H0YHC3) | inactive: 0.047 | – | – | – | – | – | – | – | – | – |
| NAA38 isoform 2 (UniProt Q9BRA0) | inactive: -0.028 | inactive: -0.018 | inactive: 0.001 | active: -0.382 | inactive: -0.016 | inactive: 0.202 | inactive: 0.062 | inactive: -0.088 | inactive: -0.041 | active: 0.244 |
| NCKAP1 isoform 2 (UniProt Q9Y2A7) | inactive: -0.025 | inactive: -0.035 | inactive: -0.009 | inactive: -0.002 | inactive: -0.025 | inactive: -0.032 | inactive: 0 | inactive: -0.007 | inactive: -0.019 | inactive: -0.006 |
| NAP1L5 (UniProt Q96NT1) | inactive: 0.079 | inactive: 0.017 | inactive: 0.094 | active: 0.616 | inactive: 0.099 | inactive: -0.299 | inactive: -0.016 | inactive: -0.171 | inactive: 0.076 | inactive: -0.174 |
| MYDGF (UniProt Q969H8) | inactive: -0.013 | inactive: 0.004 | inactive: -0.011 | inactive: -0.089 | inactive: 0.022 | inactive: 0.05 | inactive: -0.032 | inactive: -0.028 | inactive: -0.011 | inactive: 0.019 |
| MYO1D (UniProt O94832) | inactive: 0.014 | inactive: -0.051 | inactive: -0.035 | inactive: 0.016 | inactive: -0.028 | inactive: -0.072 | inactive: 0.01 | inactive: 0.011 | inactive: -0.041 | inactive: -0.005 |
| NCBP1 (UniProt Q09161) | inactive: -0.009 | inactive: 0 | inactive: -0.048 | inactive: -0.055 | inactive: 0 | inactive: -0.035 | inactive: -0.008 | inactive: -0.011 | inactive: -0.038 | inactive: 0.068 |
| MYT1L (UniProt Q9UL68) | inactive: -0.033 | – | – | – | – | – | – | – | – | – |
| NBN (UniProt O60934) | inactive: 0.008 | inactive: -0.006 | inactive: -0.028 | inactive: 0.033 | inactive: -0.006 | inactive: -0.05 | inactive: 0.032 | inactive: 0.001 | inactive: -0.016 | inactive: -0.026 |
| NCOR2 (UniProt C9J0Q5) | inactive: 0.063 | inactive: -0.028 | inactive: 0.116 | inactive: 0.018 | inactive: -0.014 | inactive: -0.055 | inactive: 0.011 | inactive: -0.052 | inactive: 0.079 | inactive: -0.07 |
| NADK (UniProt O95544) | inactive: 0.016 | inactive: -0.036 | inactive: 0.015 | inactive: -0.013 | inactive: -0.004 | inactive: 0.032 | inactive: 0.032 | inactive: 0.03 | inactive: 0.068 | inactive: -0.027 |
| NBEA (UniProt Q8NFP9) | inactive: 0.015 | inactive: -0.032 | inactive: -0.058 | inactive: -0.103 | inactive: 0.001 | inactive: 0.059 | inactive: -0.021 | inactive: 0.137 | inactive: -0.026 | inactive: 0.121 |
| NACA (UniProt E9PAV3) | inactive: -0.01 | inactive: 0.008 | inactive: -0.015 | inactive: -0.147 | inactive: 0.042 | inactive: 0.053 | inactive: -0.021 | inactive: -0.016 | inactive: 0.019 | inactive: 0.115 |
| NAA30 (UniProt Q147X3) | inactive: -0.021 | inactive: -0.028 | inactive: -0.01 | inactive: -0.025 | inactive: -0.037 | inactive: 0.012 | inactive: 0.015 | inactive: -0.028 | inactive: 0.042 | inactive: 0.06 |
| NANS (UniProt Q9NR45) | inactive: -0.004 | inactive: 0.008 | inactive: 0.044 | inactive: -0.051 | inactive: 0.002 | inactive: 0.002 | inactive: 0.01 | inactive: -0.017 | inactive: 0.01 | inactive: 0.003 |

| Target | log2 fold change (lapatinib) | log2 fold change (pictilisib) | log2 fold change (crizotinib) | log2 fold change [1] | log2 fold change (duvelisib) | log2 fold change (gandotinib) | log2 fold change (tozasertib) | log2 fold change (doramapimod) | log2 fold change (bafetinib) | log2 fold change [2] |
| --- | --- | --- | --- | --- | --- | --- | --- | --- | --- | --- |
| NAXE (UniProt Q8NCW5) | inactive: 0.008 | inactive: -0.008 | inactive: 0.046 | inactive: 0.024 | inactive: -0.016 | inactive: -0.031 | inactive: 0 | inactive: -0.011 | inactive: 0.002 | inactive: -0.003 |
| MYH9 (UniProt P35579) | inactive: -0.036 | inactive: -0.001 | inactive: 0.016 | inactive: 0.011 | inactive: 0.017 | inactive: -0.004 | inactive: -0.004 | inactive: -0.01 | inactive: -0.001 | inactive: -0.001 |
| NAPG (UniProt Q99747) | inactive: -0.004 | inactive: 0.001 | inactive: 0.016 | inactive: 0.024 | inactive: 0.021 | inactive: -0.009 | inactive: 0.009 | inactive: -0.012 | inactive: 0.039 | inactive: -0.049 |
| NCKIPSD (UniProt Q9NZQ3) | inactive: -0.049 | inactive: -0.033 | inactive: 0.031 | inactive: 0.013 | inactive: 0.058 | inactive: -0.174 | inactive: 0.041 | inactive: 0.037 | inactive: -0.11 | inactive: 0.059 |
| NCAPD2 (UniProt Q15021) | inactive: -0.033 | inactive: 0.001 | inactive: -0.049 | inactive: -0.003 | inactive: 0.014 | inactive: -0.115 | inactive: -0.006 | inactive: 0.011 | inactive: -0.036 | inactive: 0.029 |
| MYL6 (UniProt P60660) | inactive: 0.042 | inactive: 0.002 | inactive: 0.033 | inactive: 0.036 | inactive: 0.004 | inactive: 0.025 | inactive: 0.02 | inactive: -0.03 | inactive: 0.015 | inactive: -0.01 |
| NCOA5 (UniProt Q9HCD5) | inactive: 0.031 | inactive: -0.099 | inactive: -0.007 | inactive: 0.013 | inactive: 0.009 | inactive: 0.07 | inactive: 0.024 | inactive: 0.061 | inactive: -0.075 | inactive: -0.006 |
| NAA35 (UniProt Q5VZE5) | inactive: 0.009 | inactive: 0.032 | inactive: -0.031 | inactive: 0.082 | inactive: -0.007 | inactive: -0.042 | inactive: -0.003 | inactive: 0.031 | inactive: -0.057 | inactive: -0.022 |
| MYCBP (UniProt Q99417) | inactive: 0.01 | inactive: -0.052 | inactive: 0.003 | active: -0.498 | inactive: 0.02 | inactive: 0.105 | inactive: 0.028 | inactive: 0.008 | inactive: -0.018 | inactive: 0.182 |
| MYD88 isoform 6 (UniProt Q99836) | inactive: 0.014 | inactive: -0.006 | inactive: -0.007 | inactive: -0.032 | inactive: 0.03 | inactive: -0.009 | inactive: 0.068 | inactive: 0.019 | inactive: -0.018 | inactive: 0 |
| MYB isoform 4 (UniProt P10242) | inactive: -0.012 | inactive: 0.197 | inactive: -0.009 | inactive: 0.104 | inactive: 0.143 | inactive: -0.168 | inactive: 0.113 | inactive: -0.039 | inactive: 0.105 | inactive: -0.098 |
| NCEH1 (UniProt Q6PIU2) | inactive: -0.011 | inactive: 0.003 | inactive: 0 | inactive: 0.028 | inactive: 0.011 | inactive: 0.028 | inactive: 0.005 | inactive: -0.045 | inactive: -0.053 | inactive: -0.033 |
| NBR1 (UniProt Q14596) | inactive: -0.002 | inactive: 0.026 | inactive: -0.019 | inactive: -0.02 | inactive: 0.082 | inactive: -0.109 | inactive: 0.384 | inactive: -0.082 | inactive: 0.009 | inactive: 0.143 |
| MYO18A (UniProt Q92614) | inactive: -0.02 | inactive: -0.015 | inactive: -0.005 | inactive: -0.015 | inactive: -0.014 | inactive: -0.006 | inactive: -0.004 | inactive: 0.041 | inactive: 0 | inactive: 0.027 |
| MYL4 (UniProt P12829) | inactive: 0.007 | inactive: -0.04 | inactive: 0.01 | inactive: -0.025 | inactive: 0.014 | inactive: 0.019 | inactive: 0.019 | inactive: -0.019 | inactive: -0.046 | inactive: -0.013 |
| NAA11 (UniProt Q9BSU3) | inactive: 0.009 | inactive: 0.048 | inactive: 0.017 | inactive: 0.022 | inactive: -0.058 | inactive: 0 | inactive: 0.001 | inactive: -0.078 | inactive: 0.099 | inactive: -0.059 |

Random excerpt: three records from the list, in no set order.

| Target | log2 fold change (lapatinib) | log2 fold change (pictilisib) | log2 fold change (crizotinib) | log2 fold change [1] | log2 fold change (duvelisib) | log2 fold change (gandotinib) | log2 fold change (tozasertib) | log2 fold change (doramapimod) | log2 fold change (bafetinib) | log2 fold change [2] |
| --- | --- | --- | --- | --- | --- | --- | --- | --- | --- | --- |
| MYCBP (UniProt Q99417) | inactive: 0.01 | inactive: -0.052 | inactive: 0.003 | active: -0.498 | inactive: 0.02 | inactive: 0.105 | inactive: 0.028 | inactive: 0.008 | inactive: -0.018 | inactive: 0.182 |
| MYL4 (UniProt P12829) | inactive: 0.007 | inactive: -0.04 | inactive: 0.01 | inactive: -0.025 | inactive: 0.014 | inactive: 0.019 | inactive: 0.019 | inactive: -0.019 | inactive: -0.046 | inactive: -0.013 |
| NCOA5 (UniProt Q9HCD5) | inactive: 0.031 | inactive: -0.099 | inactive: -0.007 | inactive: 0.013 | inactive: 0.009 | inactive: 0.07 | inactive: 0.024 | inactive: 0.061 | inactive: -0.075 | inactive: -0.006 |
